{"source": "PubChem BioAssay AID493014", "about": "(National Center for Advancing Translational Sciences (NCATS), 2011)", "assay": "qHTS Assay to Find Inhibitors of Chronic Active B-Cell Receptor Signaling", "details": "ABC-DLBCL IkBa-CBG/CBR reporter, luminescence ratio (green luciferase fused to IkBa over red control in TMD8 lymphoma cells), 4 h", "how_it_was_run": "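Cell line TMD8 (human ABC DLBCL), stably expressing tet-inducible CBG68-IkBa fusion and CBR; IMDM/0.5% FBS; cpd up to 46 uM; dox induction, 4 h, 37C/5% CO2; dual luminescence; green/red ratio; MG132 control.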", "key": {"[1]": {"details": "measured here: CBR red luminescence, cell number"}}, "note": "The other results are listed elsewhere or left out. These are further read-outs of the screen, such as a control signal, another cell line or another target. No call is given for them. The list favours compounds with an active or inconclusive main result. Potencies come from curve fits of mixed quality, noted in brackets."}
{"compound": "CC(C)Oc1ccc(C(=O)NC2(C(F)(F)F)N=C3SCCN3C2=O)cc1", "note": "(stereo not drawn)", "values": [{"measurement": "AC50", "setting": "[1]", "value": "29.1 µM [rising, single point]"}]}
{"compound": "Cc1ccc(NC(=O)c2ccc(OC(=O)COc3ccc(Cl)c(C)c3)cc2)cc1", "values": [{"measurement": "AC50", "setting": "[1]", "value": "2.59 µM [falling, full curve]"}]}
{"compound": "CCSc1nc2ccc(C)cc2cc1C#N", "values": [{"measurement": "AC50", "setting": "[1]", "value": "11.2 µM [rising, partial curve]"}]}
{"compound": "C(=N\\Nc1ccccn1)/c1ccc2c(c1)OCCO2", "values": [{"measurement": "AC50", "setting": "[1]", "value": "0.794 µM [rising, partial curve, poor fit]"}]}
{"compound": "O=C(COC(=O)c1ccccc1NC(=O)c1ccco1)NC1CCS(=O)(=O)C1", "note": "(stereo not drawn)", "values": [{"measurement": "AC50", "setting": "[1]", "value": "35.5 µM [falling, single point]"}]}
{"compound": "CCOc1ccc(NC(=O)COc2ccccc2C(=O)NCc2ccccc2)cc1", "values": [{"measurement": "AC50", "setting": "[1]", "value": "11.6 µM [rising, partial curve]"}]}
{"compound": "Cc1ccc(Nc2nnc(SCC(=O)NC3CCCc4ccccc43)s2)cc1", "note": "(stereo not drawn)", "values": [{"measurement": "AC50", "setting": "[1]", "value": "29.1 µM [falling, single point]"}]}
{"compound": "CC1Sc2ccc(C(=O)Nc3ccccc3OC(F)F)cc2NC1=O", "note": "(stereo not drawn)", "values": [{"measurement": "AC50", "setting": "[1]", "value": "11.6 µM [falling, partial curve]"}]}
{"compound": "COc1cc(SSc2cc(OC)cc([N+](=O)[O-])c2N)c(N)c([N+](=O)[O-])c1", "values": [{"measurement": "AC50", "setting": "[1]", "value": "12.6 µM [falling, single point]"}, {"measurement": "AC50", "setting": "measured here: IkBa-CBG green luminescence", "value": "7.94 µM [falling, partial curve]"}]}
{"compound": "CN(CC1COc2ccccc2O1)C(=O)c1ccc(N(C)C)cc1", "note": "(stereo not drawn)", "values": [{"measurement": "AC50", "setting": "[1]", "value": "11.2 µM [rising, partial curve]"}]}
{"compound": "C=CCNC(=S)Nc1cccc([N+](=O)[O-])c1", "values": [{"measurement": "AC50", "setting": "[1]", "value": "5.01 µM [rising, partial curve, poor fit]"}]}
{"compound": "COc1ccc(/C=N/Nc2nc3ccccc3o2)cc1O", "values": [{"measurement": "AC50", "setting": "[1]", "value": "13 µM [falling, partial curve, poor fit]"}]}
{"compound": "Cc1nn(-c2ccc(F)cc2)c(Cl)c1/C=N/NC(=O)c1ccc(O)cc1", "values": [{"measurement": "AC50", "setting": "[1]", "value": "7.08 µM [falling, partial curve]"}]}
{"compound": "COc1ccc(C2CC(c3ccccc3)=NN2C(=O)COC(=O)c2ccc(Cl)nc2)cc1", "note": "(stereo not drawn)", "values": [{"measurement": "AC50", "setting": "[1]", "value": "20.6 µM [rising, partial curve, poor fit]"}]}
{"compound": "Cc1cc(NC(=O)COc2cccc3cccnc23)no1", "values": [{"measurement": "AC50", "setting": "[1]", "value": "11.6 µM [falling, partial curve, poor fit]"}]}
{"compound": "CCc1ccc(Nc2nnc(SCC(=O)NC(=O)c3cccn3C)s2)cc1", "values": [{"measurement": "AC50", "setting": "[1]", "value": "1.12 µM [falling, partial curve]"}]}
{"compound": "O=C(Nc1nccs1)c1ccc(NC(=O)C2CC=CCC2C(=O)O)cc1", "note": "(stereo not drawn)", "values": [{"measurement": "AC50", "setting": "[1]", "value": "25.1 µM [falling, single point]"}]}
{"compound": "COc1c(F)c(F)c(C(=O)O)c(Nc2ccc(C)cc2C)c1F", "values": [{"measurement": "AC50", "setting": "[1]", "value": "5.01 µM [rising, partial curve]"}]}
{"compound": "O=C(O)c1cccnc1C(=O)O", "values": [{"measurement": "AC50", "setting": "[1]", "value": "4.11 µM [rising, single point]"}]}
{"compound": "C/C(=C\\C(=O)c1ccncc1)Nc1ccccc1O", "values": [{"measurement": "AC50", "setting": "[1]", "value": "14.1 µM [falling, partial curve]"}]}
{"compound": "COc1ccccc1C(=O)CSc1nnc(-c2ccco2)o1", "values": [{"measurement": "AC50", "setting": "[1]", "value": "10 µM [falling, partial curve]"}]}
{"compound": "COc1ccc(OC)c(C(=O)CN2C(=O)NC(C)(c3ccccc3)C2=O)c1", "note": "(stereo not drawn)", "values": [{"measurement": "AC50", "setting": "[1]", "value": "15.8 µM [rising, single point]"}]}
{"compound": "O=C(Nc1nc2ccc(F)cc2s1)c1cccs1", "values": [{"measurement": "AC50", "setting": "[1]", "value": "1.26 µM [falling, full curve]"}]}
{"compound": "CC(=O)c1ccc(-c2nc3ccccc3n2C)o1", "values": [{"measurement": "AC50", "setting": "[1]", "value": "29.1 µM [falling, single point]"}]}
{"compound": "COc1ccc(C(C)=O)cc1COC(=O)c1ccc2c(c1)OCCO2", "values": [{"measurement": "AC50", "setting": "[1]", "value": "29.1 µM [rising, single point]"}]}
{"compound": "CN(C(=O)COC(=O)/C=C/c1ccc2ccccc2n1)c1c(N)n(Cc2ccccc2)c(=O)[nH]c1=O", "values": [{"measurement": "AC50", "setting": "[1]", "value": "3.66 µM [falling, partial curve, poor fit]"}]}
{"compound": "CC(NC(=O)C1CCC(CNC(=O)[C@@H]2Cc3ccccc3CN2)CC1)c1ccccc1", "note": "(stereo partly drawn)", "values": [{"measurement": "AC50", "setting": "[1]", "value": "11.2 µM [falling, partial curve]"}]}
{"compound": "Cc1ccc(/C=C2/Sc3ccc(C(=O)NCc4ccccn4)cc3NC2=O)cc1", "values": [{"measurement": "AC50", "setting": "[1]", "value": "0.631 µM [falling, full curve, poor fit]"}]}
{"compound": "COc1ccc(-c2noc(CSc3ccc(C)cc3)n2)cc1", "values": [{"measurement": "AC50", "setting": "[1]", "value": "20.6 µM [rising, partial curve, poor fit]"}]}
{"compound": "O=S(=O)(c1ccc2ncn(O)c2c1)N1CCOCC1", "values": [{"measurement": "AC50", "setting": "[1]", "value": "0.398 µM [rising, full curve, poor fit]"}]}
{"compound": "CSCCC(NC(=O)c1ccc(Cl)cc1Cl)C(=O)OCC(N)=O", "note": "(stereo not drawn)", "values": [{"measurement": "AC50", "setting": "[1]", "value": "0.501 µM [rising, full curve, poor fit]"}]}
{"compound": "N#CNC1=NCN(Cc2ccccc2)CN1", "values": [{"measurement": "AC50", "setting": "[1]", "value": "0.708 µM [falling, full curve]"}]}
{"compound": "Cc1ccc(Nc2c(F)c(F)c(F)c(F)c2C(=O)O)c(C)c1", "values": [{"measurement": "AC50", "setting": "[1]", "value": "20 µM [rising, partial curve, poor fit]"}]}
{"compound": "O=C(CSCC(=O)N1CCN(c2ccccc2)CC1)Nc1nc(-c2ccc(Cl)s2)cs1", "values": [{"measurement": "AC50", "setting": "[1]", "value": "6.51 µM [falling, full curve, poor fit]"}]}
{"compound": "COc1ccc(-n2ncc3c(N4CCC(C)CC4)ncnc32)cc1", "values": [{"measurement": "AC50", "setting": "[1]", "value": "3.16 µM [rising, partial curve, poor fit]"}]}
{"compound": "C(=C\\c1ccccc1)/C=N/Nc1nncc(-c2ccccc2)n1", "values": [{"measurement": "AC50", "setting": "[1]", "value": "9.2 µM [rising, partial curve, poor fit]"}]}
{"compound": "Cc1ccc(SCc2nc(N)nc(Nc3ccccc3C)n2)cc1C", "values": [{"measurement": "AC50", "setting": "[1]", "value": "2.06 µM [falling, full curve, poor fit]"}]}
{"compound": "COc1ccc(C(=O)Nn2c(SCC(=O)NC3CCCCC3)nc3ccccc3c2=O)cc1", "values": [{"measurement": "AC50", "setting": "[1]", "value": "4.61 µM [falling, partial curve]"}]}
{"compound": "CC(=O)Nc1ccc(/C(C)=N/NC(=O)c2ccncc2)cc1", "values": [{"measurement": "AC50", "setting": "[1]", "value": "35.5 µM [falling, single point]"}]}
{"compound": "Cc1nn(C)cc1CN1CCCC(C(=O)c2ccc(-c3ccccc3)c(F)c2)C1", "note": "(stereo not drawn)", "values": [{"measurement": "AC50", "setting": "[1]", "value": "3.55 µM [rising, single point]"}]}
{"compound": "O=C(NCCCn1ccnc1)c1ccc(S(=O)(=O)Nc2ccccc2)cc1", "values": [{"measurement": "AC50", "setting": "[1]", "value": "25.1 µM [rising, partial curve, poor fit]"}]}
{"compound": "O=c1ccnc(SCn2nnc3ccccc3c2=O)[nH]1", "values": [{"measurement": "AC50", "setting": "[1]", "value": "16.4 µM [rising, single point]"}]}
